According to the supplement of paper PMC8426693:
The other results are listed elsewhere or left out.

How the values were obtained:
Test in all cases: NMR binding call after quantification (hit when 2 of 3 NMR criteria are met) (binary (1 = binding, 0 = not binding)); higher = binding
Settings in all cases: RNA concentration 10 µM; fragment concentration 200 µM; 293 K
[1] = test system: SARS-CoV-2 5'-UTR RNA
[2] = test system: SARS-CoV-2 5_SL1 RNA
[3] = test system: SARS-CoV-2 5_SL1234 RNA
[4] = test system: SARS-CoV-2 5_SL2+3 RNA
[5] = test system: SARS-CoV-2 5_SL4 RNA
[6] = test system: SARS-CoV-2 5_SL5 RNA
[7] = test system: SARS-CoV-2 5_SL5a RNA
[8] = test system: SARS-CoV-2 5_SL5b+c RNA
[9] = test system: SARS-CoV-2 5_SL5stem RNA
[10] = test system: SARS-CoV-2 5_SL6 RNA

Compound | NMR binding call [1] | NMR binding call [2] | NMR binding call [3] | NMR binding call [4] | NMR binding call [5] | NMR binding call [6] | NMR binding call [7] | NMR binding call [8] | NMR binding call [9] | NMR binding call [10]
O=C(Cc1ccc(Cl)cc1)Nc1ncccn1 | 0 | 0 | 0 | 0 | 0 | 0 | 0 | 0 | 0 | 0
O=C(c1c(F)cccc1F)N1CCCCCC1 | 0 | 0 | 0 | 0 | 0 | 0 | 0 | 0 | 0 | 0
CC(C)(C)NC(=O)N1CCC(C(N)=O)CC1 | 0 | 0 | 0 | 0 | 0 | 0 | 0 | 0 | 0 | 0
CS(=O)(=O)N1CCCC(C(=O)O)C1 (stereo not given) | 0 | 0 | 0 | 0 | 0 | 0 | 0 | 0 | 0 | 0
COc1ccc(NC(=O)CN)cc1 | 1 | 0 | 0 | 0 | 0 | 0 | 0 | 0 | 0 | 0
CC(=O)Nc1ccc(NC(=O)CC(C)C)cc1 | 0 | 0 | 0 | 0 | 0 | 0 | 0 | 0 | 0 | 0
NC(=O)N1CCN(C(=O)c2ccco2)CC1 | 0 | 0 | 0 | 0 | 0 | 0 | 0 | 0 | 0 | 0
CCS(=O)(=O)Nc1ccccc1F | 0 | 0 | 0 | 0 | 0 | 0 | 0 | 0 | 0 | 0
N#Cc1cccc(NC(=O)CCC2CCCC2)c1 | 0 | 0 | 0 | 0 | 0 | 0 | 0 | 0 | 0 | 0
O=S1(=O)CCCN1Cc1cccc(F)c1 | 0 | 0 | 0 | 0 | 0 | 0 | 0 | 0 | 0 | 0
COCC(=O)NCc1ccc(C)cc1 | 0 | 0 | 0 | 0 | 0 | 0 | 0 | 0 | 0 | 0
CC(C)(CO)NC(=O)c1cccc(Cl)c1 | 0 | 0 | 0 | 0 | 0 | 0 | 0 | 0 | 0 | 0
Cc1csc(CNC(=O)c2cc[nH]n2)n1 | 0 | 0 | 0 | 0 | 0 | 0 | 0 | 0 | 0 | 0
NNC(=O)c1ccc(OCc2ccccc2)cc1 | 0 | 0 | 0 | 0 | 0 | 0 | 0 | 0 | 0 | 0
CC1=NN(c2ccccc2)C(=O)C1 | 0 | 0 | 0 | 0 | 0 | 0 | 0 | 0 | 0 | 0
COC(=O)C1CC(O)CN1C(=O)c1ccco1 (stereo not given) | 0 | 0 | 0 | 0 | 0 | 0 | 0 | 0 | 0 | 0
CCN1CCN(C(=O)NC2CCCCC2)CC1 | 0 | 0 | 0 | 0 | 0 | 0 | 0 | 0 | 0 | 0
COc1ccc(N2CC(C(N)=O)CC2=O)cc1 (stereo not given) | 0 | 0 | 0 | 0 | 0 | 0 | 0 | 0 | 0 | 0
Cc1nccn1Cc1cccc(C#N)c1 | 0 | 0 | 0 | 0 | 0 | 0 | 0 | 0 | 0 | 0
CC(=O)N1CCOC(CO)C1 (stereo not given) | 0 | 0 | 0 | 0 | 0 | 0 | 0 | 0 | 0 | 0
CCn1cc(NC(=O)C2CCC2)cn1 | 0 | 0 | 0 | 0 | 0 | 0 | 0 | 0 | 0 | 0
CCC(=O)Nc1c(C(N)=O)oc2ccccc12 | 0 | 0 | 0 | 0 | 0 | 0 | 0 | 0 | 0 | 0
c1cnc(N2CCC3(CCOC3)C2)cn1 (stereo not given) | 0 | 0 | 0 | 0 | 0 | 0 | 0 | 0 | 0 | 0
CC(=O)N1CCN(c2ccc(Cl)cc2)CC1 | 0 | 0 | 0 | 0 | 0 | 0 | 0 | 0 | 0 | 0
CC(C)n1cc(C(=O)O)nn1 | 0 | 0 | 0 | 0 | 0 | 0 | 0 | 0 | 0 | 0
O=C(c1csnn1)N1CCOCC1 | 0 | 0 | 0 | 0 | 0 | 0 | 0 | 0 | 0 | 0

No new results follow: entries from further up.
Compound | NMR binding call [1] | NMR binding call [2] | NMR binding call [3] | NMR binding call [4] | NMR binding call [5] | NMR binding call [6] | NMR binding call [7] | NMR binding call [8] | NMR binding call [9] | NMR binding call [10]
NC(=O)N1CCN(C(=O)c2ccco2)CC1 | 0 | 0 | 0 | 0 | 0 | 0 | 0 | 0 | 0 | 0
CCS(=O)(=O)Nc1ccccc1F | 0 | 0 | 0 | 0 | 0 | 0 | 0 | 0 | 0 | 0

(list continues)

Compound | NMR binding call [1] | NMR binding call [2] | NMR binding call [3] | NMR binding call [4] | NMR binding call [5] | NMR binding call [6] | NMR binding call [7] | NMR binding call [8] | NMR binding call [9] | NMR binding call [10]
Oc1ccc(CNC2CCCCC2)cc1 | 0 | 0 | 0 | 0 | 0 | 0 | 0 | 0 | 0 | 0
CS(=O)(=O)Nc1ccc(-c2ccccc2)cc1 | 0 | 0 | 0 | 0 | 0 | 0 | 0 | 0 | 0 | 0
O=C(CC1CCCCC1)Nc1cccnc1 | 0 | 0 | 0 | 0 | 0 | 0 | 0 | 0 | 0 | 0
C1CN(Cc2nc(C3CC3)no2)CCO1 | 0 | 0 | 0 | 0 | 0 | 0 | 0 | 0 | 0 | 0
CC(=O)NCc1ccc(S(N)(=O)=O)cc1 | 0 | 0 | 0 | 0 | 0 | 0 | 0 | 0 | 0 | 0
CC(C)COc1ccc(C(=O)N2CCCC2)cc1 | 0 | 0 | 0 | 0 | 0 | 0 | 0 | 0 | 0 | 0
Cl.O=C(CC(F)(F)F)N1CCNCC1 | 0 | 0 | 0 | 0 | 0 | 0 | 0 | 0 | 0 | 0
CS(=O)(=O)Nc1ccc(C(N)=O)cc1 | 0 | 0 | 0 | 0 | 0 | 0 | 0 | 0 | 0 | 0
CCOC(=O)c1cc(-c2ccc(C)cc2)no1 | 0 | 0 | 0 | 0 | 0 | 0 | 0 | 0 | 0 | 0
CC(=O)Nc1ccc(F)c(C(=O)O)c1 | 0 | 0 | 0 | 0 | 0 | 0 | 0 | 0 | 0 | 0
COc1ccc(C(=O)C2CCNCC2)cc1 | 0 | 0 | 0 | 0 | 0 | 0 | 0 | 0 | 0 | 0
CC(NS(C)(=O)=O)c1ccccc1Cl (stereo not given) | 0 | 0 | 0 | 0 | 0 | 0 | 0 | 0 | 0 | 0
CC(=O)N1CCN(C(N)=O)CC1 | 0 | 0 | 0 | 0 | 0 | 0 | 0 | 0 | 0 | 0
Cc1cccc(C(=O)Nc2ccc(C)cc2O)c1 | 0 | 0 | 0 | 0 | 0 | 0 | 0 | 0 | 0 | 0
O=C(O)Cc1ccc(-c2ccccc2)cc1 | 0 | 0 | 0 | 0 | 0 | 0 | 0 | 0 | 0 | 0
Cc1noc(CC(N)c2ccccc2)n1.Cl (stereo not given) | 0 | 0 | 0 | 0 | 0 | 0 | 0 | 0 | 0 | 0
CC1CN(C(=O)Cn2cccn2)CCO1 (stereo not given) | 0 | 0 | 0 | 0 | 0 | 0 | 0 | 0 | 0 | 0
Cc1cnc(NC(=O)CCC2CCCC2)s1 | 0 | 0 | 0 | 0 | 0 | 0 | 0 | 0 | 0 | 0
Fc1cccc(CNCc2ccco2)c1 | 0 | 0 | 0 | 0 | 0 | 0 | 0 | 0 | 0 | 0
O=S1(=O)CCN(Cc2ccco2)CC1 | 0 | 0 | 0 | 0 | 0 | 0 | 0 | 0 | 0 | 0
O=C(OCc1ccc(Cl)cc1)c1cccnc1 | 1 | 0 | 0 | 0 | 0 | 0 | 0 | 0 | 0 | 0
CSc1nsc(NC(C)=O)n1 | 0 | 0 | 0 | 0 | 0 | 0 | 0 | 0 | 0 | 0
CC(c1ccccc1F)N1CCNCC1.Cl.Cl (stereo not given) | 0 | 0 | 0 | 0 | 0 | 0 | 0 | 0 | 0 | 0
COCC(=O)Nc1ccccc1C(N)=O | 0 | 0 | 0 | 0 | 0 | 0 | 0 | 0 | 0 | 0
Cn1c(CNC2CCCCC2)nc2ccccc21 | 0 | 0 | 0 | 0 | 0 | 0 | 0 | 0 | 0 | 0
CCOC(=O)C1CCN(c2cnccn2)CC1 | 0 | 0 | 0 | 0 | 0 | 0 | 0 | 0 | 0 | 0
